{"source": "the supplement of paper PMC8104966", "note": "The other results are listed elsewhere or left out. Single values are uncertain here, since repeats match poorly.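 U2OS cells expressing ACE2 were combined with U2OS cells expressing full-length spike, and imaging quantified fusion as the fraction of nuclei displaying both cell types' fluorescent markers. Non-toxic compounds with a fusion z-score under -3, i.e., over three standard deviations below the plate's DMSO wells, are called inhibitory hits.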"}
{"system": "U2OS ACE2 x SARS-CoV-2 spike co-culture", "assay": "cell-cell fusion (fraction fused) z-score vs plate DMSO control; higher = more fusion", "details": "30 µM; 5 h; toxicity class: non-toxic, passed QC"}
{"compound": "O=C(O)CCc1nc(-c2ccccc2)c(-c2ccccc2)o1", "note": "[Oxaprozin]", "cell-cell fusion (z-score)": "inactive: 2.25"}
{"compound": "CC1CN(c2c(F)c(N)c3c(=O)c(C(=O)O)cn(C4CC4)c3c2F)C[C@H](C)N1", "note": "(some centres not stated)", "cell-cell fusion (z-score)": "inactive: 2.33"}
{"compound": "CC(C)C[C@H](NC(=O)[C@@H](O)[C@H](N)Cc1ccccc1)C(=O)O.Cl", "note": "[Bestatin hydrochloride]", "cell-cell fusion (z-score)": "inactive: 1.71"}
{"compound": "Nc1[nH]c(=O)ncc1F", "note": "[Fluorocytosine]", "cell-cell fusion (z-score)": "inactive: 1.3"}
{"compound": "C=CC(C1=CC(=O)C=CC1=O)c1ccccc1", "note": "(configuration not stated)", "cell-cell fusion (z-score)": "inactive: 2.06"}
{"compound": "Cc1cc(/C=c2\\sc3nc4ccccc4n3c2=O)c(C)n1-c1ccccc1", "cell-cell fusion (z-score)": "inactive: 0.0413"}
{"compound": "CO[C@H]1C[C@@H]2CC[C@@H](C)[C@@](O)(O2)C(=O)C(=O)N2CCCC[C@@H]2C(=O)OC([C@H](C)C[C@@H]2CC[C@@H](OC(=O)C(C)(CO)CO)[C@H](OC)C2)CC(=O)[C@H](C)/C=C(\\C)[C@@H](O)[C@@H](OC)C(=O)[C@H](C)C[C@H](C)/C=C/C=C/C=C/1C", "note": "(some centres not stated) [Temsirolimus]", "cell-cell fusion (z-score)": "inactive: 4.35"}
{"compound": "Cl.Oc1cc2c(cc1O)C(c1ccccc1)CNCC2", "note": "(racemic)", "cell-cell fusion (z-score)": "inactive: -2.61"}
{"compound": "CCOc1cc2ncc(C#N)c(Nc3ccc(OCc4ccccn4)c(Cl)c3)c2cc1NC(=O)/C=C/CN(C)C", "note": "[Neratinib (HKI-272)]", "cell-cell fusion (z-score)": "inactive: -0.807"}
{"compound": "Cl.NC1(C(=O)O)CCCCC1", "note": "[1-Amino-1-cyclohexanecarboxylic acid hydrochloride]", "cell-cell fusion (z-score)": "inactive: 2.42"}
{"compound": "CC(=O)OCC(=O)[C@H]1CCC2C3CC=C4C[C@@H](O)CC[C@]4(C)C3CC[C@@]21C", "note": "(some centres not stated)", "cell-cell fusion (z-score)": "inactive: 2.02"}
{"compound": "Cc1onc(-c2ccccc2)c1-c1ccc(S(N)(=O)=O)cc1", "note": "[Valdecoxib]", "cell-cell fusion (z-score)": "inactive: 1.14"}
{"compound": "N=C(N)NCCC[C@H](N)C(=O)O", "note": "[L-Arginine]", "cell-cell fusion (z-score)": "inactive: 1.11"}
{"compound": "CCOc1cc(CC(=O)N[C@@H](CC(C)C)c2ccccc2N2CCCCC2)ccc1C(=O)O", "cell-cell fusion (z-score)": "inactive: 3.2"}
{"compound": "CC/C=C\\CC1=C(C)CCC1=O", "cell-cell fusion (z-score)": "inactive: 2.05"}
{"compound": "OC[C@H]1O[C@@H](c2nc3cc(Cl)c(Cl)cc3[nH]2)[C@H](O)[C@@H]1O", "note": "[D-ribofuranosylbenzimidazole]", "cell-cell fusion (z-score)": "inactive: 3.41"}
{"compound": "CC(=O)O[C@@H]1C[C@@]23C[C@@]24CC[C@H](O[C@@H]2OC[C@@H](O)[C@H](O)[C@H]2O)C(C)(C)C4CCC3[C@]2(C)C[C@@H]3OC4(C[C@@H](C)[C@@H]3[C@@]12C)O[C@H](O)[C@]1(C)O[C@H]41", "note": "(some centres not stated)", "cell-cell fusion (z-score)": "inactive: 2.09"}
